Laboratory results from doi:10.1101/660712.
Results are given in words; binding and its absence hold for the method and conditions named. For part of these data: Binding seen in cells or lysates may run through a third protein. Some results given as binding are weak or reduced against the parent protein; the word gives no strength. Values belong to the substance of their own block, whether it stands above or below them.

By UniProt entry, the sequences of proteins in these tests, tags left out.
UniProt P05429: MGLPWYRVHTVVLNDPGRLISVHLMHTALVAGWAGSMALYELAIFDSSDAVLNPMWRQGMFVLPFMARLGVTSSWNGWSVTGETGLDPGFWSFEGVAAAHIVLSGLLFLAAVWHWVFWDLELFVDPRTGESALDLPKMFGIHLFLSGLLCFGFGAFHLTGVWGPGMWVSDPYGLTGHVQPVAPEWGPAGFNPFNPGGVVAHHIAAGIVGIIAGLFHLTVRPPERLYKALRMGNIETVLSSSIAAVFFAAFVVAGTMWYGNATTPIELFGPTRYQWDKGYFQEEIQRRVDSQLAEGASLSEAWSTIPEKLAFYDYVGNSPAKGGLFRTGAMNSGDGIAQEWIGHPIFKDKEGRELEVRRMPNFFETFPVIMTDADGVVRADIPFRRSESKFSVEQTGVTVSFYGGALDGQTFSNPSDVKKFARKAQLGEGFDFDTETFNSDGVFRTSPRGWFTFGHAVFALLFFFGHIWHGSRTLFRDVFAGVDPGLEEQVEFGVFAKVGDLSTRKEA
UniProt P14835: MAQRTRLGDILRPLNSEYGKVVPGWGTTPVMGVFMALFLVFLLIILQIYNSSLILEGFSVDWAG

What was measured:
[1] = biological target: CP43 (PSII core antenna protein) (Synechocystis sp. PCC 6803 (endogenous)) (UniProt P09193); assay: AUC
[2] = biological target: His-tagged CP47 (PSII core antenna protein CP47) (Synechocystis sp. PCC 6803) (UniProt P05429); assay: AUC
[3] = biological target: His-tagged CP47 (PSII core antenna protein CP47) (Synechocystis sp. PCC 6803) (UniProt P05429); assay: pull-down

- binding [1]: no binding
Substance: CP43 (PSII core antenna protein) (from UniProt P09193 1-460)

- binding [2]: no binding
Substance: His-tagged CP47 (PSII core antenna protein CP47) (from UniProt P05429 1-507)

- binding [3]: binds
Substance: PsbH (from UniProt P14835 1-64)
